The values below come from PubChem BioAssay AID445 (National Center for Advancing Translational Sciences (NCATS), 2006).

Structures are written as SMILES. The list shows a part of the results. Further columns of the screen follow, without active or inactive calls. The list favours compounds with an active or inconclusive main result. Potencies come from curve fits of mixed quality, noted in brackets.

The AC50 is the midpoint of the concentration-response curve, whichever way the signal moves.

A short description of the test: IkB Signaling. To be noted: ABC-DLBCL IkBa-CBG/CBR dual luciferase ratio (green luciferase fused to IkBa over red control in OCI-Ly3 lymphoma cells), 4 h. An outline of the steps:
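Curves were fitted separately to fusion (green), unfused (red) and ratio luminescence, then classed by r2, magnitude and activity. Cells: OCI-Ly3, 4 h compound plus doxycycline at 37C; 10 uM MG-132 defined full response.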

Where [1] appears, read: measured here: control luc red channel unless noted.

On to `COc1ccc(CCNC(=O)CSc2nnc(-c3ccc(C)cc3)c(-c3ccc(C)cc3)n2)cc1OC`, for which the AC50 under setting [1] is 39.8 µM [falling, single point]. Turning to `COc1cc2c(cc1NC(=O)CN1C(=O)NC3(CCc4ccccc43)C1=O)oc1ccccc12` (configuration not stated), the AC50 under setting [1] was 15.8 µM [falling, partial curve]. As for `COc1ccc(N(CC(=O)N2c3ccccc3CC2C)S(=O)(=O)c2c(C)noc2C)cc1` (configuration not stated), the AC50 under setting [1] is 3.16 µM [falling, partial curve]. Regarding `CC(=O)c1ccc(N2CCN(C(=O)CS(=O)(=O)c3cccc4nsnc34)CC2)cc1`, the AC50 under setting [1] is 1 µM [rising, full curve, poor fit]. In the case of `COc1ccccc1NC(=O)N1CC=C(c2c[nH]c3ccccc23)CC1`, the AC50 under setting [1] was 25.1 µM [falling, partial curve]. Take `CCOc1ccc(C(=O)NCCS(=O)(=O)N2CCN(c3cccc(Cl)c3)CC2)cc1`: the AC50 under setting [1] is 1.58 µM [rising, full curve]. With `O=c1c2c(nc3c(-c4cccc5ccccc45)c[nH]n13)CCC2`, the AC50 under setting [1] is 1.58 µM [falling, full curve, poor fit]. For the compound `Cc1cc(=O)[nH]c2nnc(SCCC(C)C)n12`, the AC50 under setting [1] is 3.16 µM [rising, single point]. Regarding `CC1CN(C(=O)CCC(=O)NCc2cccs2)c2ccccc2O1` (configuration not stated), the AC50 under setting [1] is 25.1 µM [falling, single point]. On the same count and under the same terms, for `CCOC(=O)Cc1csc(NC(=O)CCS(=O)(=O)Cc2ccccc2)n1` the value was 7.94 µM [falling, partial curve] [measured here: IkB-luc green channel]; for `COc1cc(NC(=O)C2=C(C)Nc3nnnn3C2c2ccc(SC)cc2)c(OC)cc1Cl` (configuration not stated), 31.6 µM [falling, single point]. Take `COc1cc(C(=O)Oc2ccccc2N)cc(OC)c1OC`: the AC50 under setting [1] is 2 µM [falling, full curve]. As to `Cc1nn(CCCC(=O)NCc2ccccc2)c(=O)c2c1sc1ccccc12`, the AC50 under setting [1] was 10 µM [falling, partial curve]. As for `Cc1ccc(Oc2ccc(-c3nc(N)nc(N)n3)cc2)cc1`, under setting [1], the concentration at half-maximal activity (AC50) was 31.6 µM [falling, single point]. Same read-out and setting: for `CCN(C(=O)Cn1nc2c3cc(F)ccc3n(Cc3cccc(C)c3)cc-2c1=O)c1cccc(C)c1` the value was 31.6 µM [falling, single point].

Regarding `CCN(CC)CCOC(=O)c1ccc(NC(=O)c2nn(-c3ccc(C)cc3)c(=O)c3c2c2ccccc2n3C)cc1`, under setting [1], the AC50 was 5.01 µM [falling, full curve]. In the case of `COc1cc(OC)c(NC(=O)N2CCOc3ccc(C)cc32)cc1Cl`, the AC50 under setting [1] is 6.31 µM [rising, partial curve]. `COc1ccc(Cn2nnc3c(=O)[nH]c(C4CCCN(C(=O)c5ccccc5Cl)C4)nc32)cc1OC` (configuration not stated): the AC50 under setting [1] was 3.16 µM [rising, partial curve].

Turning to `O=C(Nc1ccc2c(c1)N(C1CCCC1)C(=O)c1ccccc1S2)c1ccccc1`, under setting [1], the AC50 was 5.01 µM [falling, partial curve, poor fit]. For `COc1ccc(CCNC(=O)C(=O)NCC(c2cccs2)S(=O)(=O)c2ccccc2)cc1` (configuration not stated), the AC50 under setting [1] was 2.51 µM [rising, partial curve] [measured here: IkB-luc green channel]. Take `Cc1cccc(-c2noc(CN(C(C)C)S(=O)(=O)c3ccc(F)cc3)n2)c1`: the half-maximal activity concentration (AC50) under setting [1] is 25.1 µM [falling, partial curve]. As for `CC(=O)Nc1ccc(S(=O)(=O)N2CCN(CCCOc3cc(C)ccc3C)CC2)cc1`, the AC50 under setting [1] was 12.6 µM [falling, partial curve]. Regarding `O=C(Cn1cnc2c(cnn2-c2ccccc2)c1=O)N1CCCc2ccccc21`, under setting [1], the AC50 is 25.1 µM [falling, single point]. Take `CCCOc1ccc(-c2nnn(CC(=O)c3ccc4c(c3)OCCO4)n2)cc1`: the AC50 under setting [1] is 39.8 µM [falling, partial curve].

For `O=C(Cn1cc(SCc2ccccc2Cl)c2ccccc21)N1CCCCCC1`, the AC50 under setting [1] is 10 µM [falling, partial curve].

Take `COc1ccc(OC)c(CNS(=O)(=O)c2ccc(-c3cc(C(F)(F)F)on3)s2)c1`: the concentration at half-maximal activity (AC50) under setting [1] is 31.6 µM [falling, partial curve].

`CCC1CN(C(=O)NCc2ccc(F)cc2)c2ccccc2O1` (configuration not stated): under setting [1], the AC50 is 10 µM [falling, partial curve]. With `COc1ccc(-n2c(=O)c3c4c(sc3n(Cc3cc(=O)n5c(C)cccc5n3)c2=O)CCC4)c(OC)c1`, the AC50 under setting [1] was 39.8 µM [falling, single point].

As for `Cc1ccc(Cn2c(=O)c3ccccc3n3c(-c4ccccc4)nnc23)cc1`, the AC50 under setting [1] was 0.0794 µM [rising, full curve]. The same measure, in the same setting: for `O=C(CN1CCSCC1)N1CCc2[nH]c3ccc(Br)cc3c2C1` the value was 12.6 µM [falling, partial curve]; for `CCc1ccc(CNC(=O)CSCc2cnn(-c3ccccc3)c2-n2cccc2)cc1`, 25.1 µM [falling, partial curve]. `Cc1ccc(OCC(=O)Nc2ccc3nc(SCC(=O)N4CCCC4)sc3c2)cc1C`: under setting [1], the AC50 is 15.8 µM [falling, partial curve]. `COc1ccc(NC(=O)CCCS(=O)(=O)c2nc(-c3ccc(OC)c(OC)c3)cc(C(F)(F)F)n2)cc1OC`: the AC50 is 6.31 µM [rising, single point] (measured here: IkB-luc green channel) and 10 µM [falling, partial curve] (measured here: control luc red channel). As to `COc1ccc(Nc2nnc(-c3ccc(C)c(S(=O)(=O)N4CCOCC4)c3)c3ccccc23)cc1`, the AC50 under setting [1] is 1.58 µM [falling, full curve]. Still for that read-out and setting: for `COc1ccccc1N1CCN(C(=O)CSc2nc(-c3ccc(C(C)C)cc3)no2)CC1` the value was 31.6 µM [falling, single point]; for `CCCCNC(=O)CSc1nc2n[nH]c(C)c2c(=N)n1-c1ccccc1CC`, 39.8 µM [falling, single point]; for `COc1ccc(C2CC(=O)c3c([nH]c(C(=O)OCc4ccccc4)c3C)C2)cc1OC` (configuration not stated), 1 µM [falling, full curve, poor fit]. On to `O=C(COc1ccccc1F)Nc1nnc(S(=O)(=O)N2CCCCCC2)s1`, for which the AC50 under setting [1] was 2 µM [rising, full curve]. The same measure, in the same setting: for `O=C(NCCCN1CCN(c2ccccc2)CC1)c1cc2c(s1)-c1ccccc1OC2` the value was 25.1 µM [falling, partial curve]. As to `Cc1ccccc1Cc1c(C)nc2nc(SCC(=O)NC(C)c3ccccc3)nn2c1C` (configuration not stated), the AC50 under setting [1] is 20 µM [falling, partial curve]. The same measure, in the same setting: for `COC(=O)C1=C(C(=O)c2ccccc2)C(c2ccc(OC)c(OC)c2)Nc2nnnn21` (configuration not stated) the value was 0.794 µM [rising, full curve]; for `CCC1CN(C(=O)Nc2cccc3c2CCCC3)c2cc(C)ccc2O1` (configuration not stated), 12.6 µM [falling, partial curve]; for `Cc1ccc(CNC(=O)CN(c2cc(C)cc(C)c2)S(=O)(=O)c2c(C)[nH]c(=O)[nH]c2=O)cc1`, 0.0158 µM [falling, full curve]. As for `CCOc1ccc(-c2ccc(CO)o2)cc1N`, the AC50 under setting [1] was 2.51 µM [rising, partial curve]. As to `CCc1cccc(NC(=O)CCS(=O)(=O)c2ccc(C)cc2)c1`, the AC50 under setting [1] is 39.8 µM [falling, single point]. `O=C(NC1CCCC1)c1ccc2c(c1)N(Cc1ccc(F)cc1)C(=O)c1ccccc1S2`: the AC50 under setting [1] is 25.1 µM [falling, single point]. The same measure, in the same setting: for `COc1ccc(NC(=O)C(Cc2ccccc2)n2cccc2)c(OC)c1` (configuration not stated) the value was 25.1 µM [falling, single point]. Regarding `CC(C)CCNC(=O)CSc1nc2ccsc2c(=O)n1Cc1ccccc1Cl`, the AC50 under setting [1] was 1 µM [rising, partial curve]. For `COc1ccc(-c2noc(-c3ccccc3NC(=O)c3cc(OC)c(OC)c(OC)c3)n2)cc1`, the AC50 under setting [1] is 25.1 µM [falling, single point]. `CCCCC12CN3CC(C)(CN(C1)C3c1c(C)[nH]c(=O)[nH]c1=O)C2=O` (configuration not stated): the AC50 under setting [1] is 1.58 µM [rising, full curve]. For `CCOc1ccc(NC(=O)CN2C(=O)C(c3ccccc3)=NC23CCCCCC3)cc1`, the AC50 under setting [1] is 15.8 µM [falling, partial curve]. On the same count and under the same terms, for `Cc1cccc(Cn2c(C)c(C)c3cc(C(=O)NCc4ccc(C)o4)ccc32)c1` the value was 10 µM [falling, partial curve]; for `CCOc1ccc(CCNC(=O)c2cc3c(-c4cccc(OC)c4)nn(C)c3s2)cc1OCC`, 5.01 µM [falling, full curve]; for `Cc1cccc(C(CC(=O)NCC2(c3ccccc3)CCCC2)c2ccccc2)c1O` (configuration not stated), 7.94 µM [falling, partial curve]. Consider `CN(c1ccc(Cl)cc1)c1cc(=O)n(C)c2ccccc12`, for which the AC50 under setting [1] is 15.8 µM [falling, partial curve].

For the compound `COc1cccc(NC(=O)COc2ccccc2C(N)=O)c1`, the concentration at half-maximal activity (AC50) under setting [1] was 12.6 µM [falling, partial curve]. For `Cc1nc2nc(SCC(=O)NC(C)c3ccccc3)nn2c(C)c1Cc1c(F)cccc1Cl` (configuration not stated), the AC50 under setting [1] is 15.8 µM [falling, partial curve]. Turning to `Cc1ccc(S(=O)(=O)N2CCN(C(=O)CSc3nc4ccccc4c(=O)[nH]3)CC2)cc1`, the AC50 under setting [1] is 31.6 µM [falling, single point]. On to `COC(=O)c1ccc(NC(=O)CC2C(=O)N(c3cccc(OC)c3)C(=O)N2Cc2cccc(OC)c2)cc1` (configuration not stated), for which, under setting [1], the AC50 is 12.6 µM [falling, partial curve].

Regarding `CCOc1ccc2nc(N3CCCN(C(=O)Nc4ccccc4C)CC3)c(C#N)cc2c1`, the AC50 under setting [1] was 15.8 µM [falling, partial curve]. Take `Cc1cccc(C(=O)Nc2ccc(N3CCC(CCN4CCOCC4)CC3)c(C(=O)O)c2)c1`: the AC50 under setting [1] is 3.98 µM [rising, partial curve].
